Here are results for 1 substance from paper doi:10.1101/420000.

Protein sequences, listed by entry. Tags and fused reporters are not part of them.
UniProt P06493: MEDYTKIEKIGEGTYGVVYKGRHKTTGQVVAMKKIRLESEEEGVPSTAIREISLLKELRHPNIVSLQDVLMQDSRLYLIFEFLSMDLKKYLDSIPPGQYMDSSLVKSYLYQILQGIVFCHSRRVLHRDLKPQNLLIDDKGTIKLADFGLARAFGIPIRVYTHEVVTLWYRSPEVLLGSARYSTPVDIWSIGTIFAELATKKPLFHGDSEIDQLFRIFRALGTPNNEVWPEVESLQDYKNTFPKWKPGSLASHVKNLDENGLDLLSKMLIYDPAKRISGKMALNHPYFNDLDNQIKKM
UniProt Q96EB6: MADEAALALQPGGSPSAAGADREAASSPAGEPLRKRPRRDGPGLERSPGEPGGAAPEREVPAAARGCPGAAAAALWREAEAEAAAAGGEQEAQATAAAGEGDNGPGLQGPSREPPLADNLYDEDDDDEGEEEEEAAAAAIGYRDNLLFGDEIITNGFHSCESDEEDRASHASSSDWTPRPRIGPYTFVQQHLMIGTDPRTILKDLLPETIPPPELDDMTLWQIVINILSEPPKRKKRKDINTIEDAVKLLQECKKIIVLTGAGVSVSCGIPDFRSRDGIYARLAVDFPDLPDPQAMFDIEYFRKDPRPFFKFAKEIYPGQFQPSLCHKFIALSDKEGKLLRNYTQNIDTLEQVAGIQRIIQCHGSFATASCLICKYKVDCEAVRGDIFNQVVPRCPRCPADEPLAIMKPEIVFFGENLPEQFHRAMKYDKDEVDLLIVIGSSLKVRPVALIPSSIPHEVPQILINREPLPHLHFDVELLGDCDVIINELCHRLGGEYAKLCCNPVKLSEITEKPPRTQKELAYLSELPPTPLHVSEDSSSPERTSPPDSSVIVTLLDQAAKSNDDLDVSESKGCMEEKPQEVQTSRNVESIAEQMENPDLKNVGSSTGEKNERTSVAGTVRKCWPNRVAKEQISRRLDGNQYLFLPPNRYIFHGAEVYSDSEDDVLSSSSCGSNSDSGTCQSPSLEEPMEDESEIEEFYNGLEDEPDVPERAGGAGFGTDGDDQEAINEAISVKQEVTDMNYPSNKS

No constants are given. Whether binding was seen depends on the method and setting. In cells and extracts the contact can be indirect. Some binding calls cover weakened binding; strength is not graded here.

In this experiment the target is CDK1-WT-HA (UniProt P06493). Nature of the experiment: co-IP.

For SIRT1 (from UniProt Q96EB6) (enzyme), the binding result is given as “binds”.
